Values from PubChem BioAssay AID504786 (Drosophila RNAi Screening Center, 2011)
Aim: 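Positive regulators of HIF-driven reporter output in Drosophila cells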 (primary screen). System: Drosophila S2 cells with a stable HIF luciferase reporter. Reagent: long dsRNA against Drosophila genes, about 0.2 µg dsRNA per well of a 384-well plate. Duration: three days of knock-down, then 20 h of DFO before reading. Conditions: desferrioxamine (DFO) at 100 µM, an iron chelator that mimics hypoxia, for 20 h. Detection: 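Firefly luciferase driven by the mouse ldh-a hypoxia-response element, measured after 20 h of 100 µM DFO; z-scores per plate, higher means more signal lost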. Direction: z-score: higher = stronger loss of HIF reporter signal.
In all, the deposit lists about 21,000 reagents; below is an unselected part of those that have a named target and a result. 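Primary screen; positive scores mean lost reporter signal, so the sign may be inverted from the usual convention.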 The numbers tell different reagents against one gene apart. Names joined by + are all predicted targets of the reagent. Not all columns of the deposit are shown. No sequences are given here.

Silencing of MAPk-Ak2 (MAP kinase activated protein-kinase-2) gave: z-score, replicate 1 = 0.
Knock-down of Socs36E (Suppressor of cytokine signaling at 36E) gave: z-score, replicate 1 = -0.2.
CG9988 showed z-score, replicate 1 = -0.2.
Silencing of CG4066 gave: z-score, replicate 1 = -0.4.
CG31262 scored z-score, replicate 1 = 0.1.
With knock-down of CG16972, the screen gave z-score, replicate 1 = 0.
For CG15546, the values are z-score, replicate 1 = -0.5.
After knock-down of alka (alkaliphile), the screen gave z-score, replicate 1 = -0.4.
Against CG12920, the values are z-score, replicate 1 = -0.3.
Against Obp99a (Odorant-binding protein 99a) the deposit lists z-score, replicate 1 = 0.9.
CG11898 showed z-score, replicate 1 = -0.3.
natalisin #1 scored z-score, replicate 1 = 0.9.
Knock-down of natalisin #2 came out at: z-score, replicate 1 = 0.1.
Against Lrt (Leucine-rich tendon-specific protein), the entry reads z-score, replicate 1 = -0.3.
Silencing of CG8176 resulted in: z-score, replicate 1 = -0.4.
Depletion of CG9500 came out at: z-score, replicate 1 = -0.3.
After knock-down of CG8611, the screen gave z-score, replicate 1 = -0.1.

Ordered by “z-score, replicate 1” (high to low): 2 of the entries above
natalisin #1 → z-score, replicate 1 = 0.9
natalisin #2 → z-score, replicate 1 = 0.1

The listing continues:
After knock-down of BBS9 (Bardet-Biedl syndrome 9), the screen gave z-score, replicate 1 = -0.3.
For CG3760 the deposit lists z-score, replicate 1 = -0.2.
With knock-down of CG12105, the record shows z-score, replicate 1 = -0.2.
Against CG6769, the values are z-score, replicate 1 = -0.3.
Knock-down of CG3092 came out at: z-score, replicate 1 = -0.3.
For CG13926 the deposit lists z-score, replicate 1 = -0.2.
After knock-down of CG42726 + CG42727, the screen gave z-score, replicate 1 = -0.4.
After knock-down of CG5078, the record shows z-score, replicate 1 = -0.3.
Against PyK (Pyruvate kinase), the values are z-score, replicate 1 = -0.3.
CG12963 scored z-score, replicate 1 = 0.
Against CG13794, the entry reads z-score, replicate 1 = -0.2.
Knock-down of CG1789 came out at: z-score, replicate 1 = 0.1.
For CG6661, the entry reads z-score, replicate 1 = -0.2.
sprt (sprite) gave z-score, replicate 1 = -0.3.
sim (single-minded) gave z-score, replicate 1 = -0.2.
With knock-down of Asator, the screen gave z-score, replicate 1 = -0.2.
Knock-down of Alg13 (Alg13 UDP-N-acetylglucosaminyltransferase subunit) came out at: z-score, replicate 1 = -0.3.
After knock-down of CG32988, the screen gave z-score, replicate 1 = -0.2.
After knock-down of CG6262 the results were z-score, replicate 1 = 0.7.
Knock-down of CG7691 came out at: z-score, replicate 1 = -1.1.
After knock-down of CG12155, the screen gave z-score, replicate 1 = 0.2.
Silencing of CG4553 came out at: z-score, replicate 1 = -0.3.
Against CG18745, the values are z-score, replicate 1 = -0.4.
